Test results: publication PMC11381189
No constants are given. Whether binding was seen depends on the method and setting. Binding seen in cells or lysates may run through a third protein. Some binding calls cover weakened binding; strength is not graded here. Sequences can lack the tags named with a protein.

Protein sequences, listed by entry. Tags and fused reporters are not part of them. Residues count along the entry.
UniProt P10070: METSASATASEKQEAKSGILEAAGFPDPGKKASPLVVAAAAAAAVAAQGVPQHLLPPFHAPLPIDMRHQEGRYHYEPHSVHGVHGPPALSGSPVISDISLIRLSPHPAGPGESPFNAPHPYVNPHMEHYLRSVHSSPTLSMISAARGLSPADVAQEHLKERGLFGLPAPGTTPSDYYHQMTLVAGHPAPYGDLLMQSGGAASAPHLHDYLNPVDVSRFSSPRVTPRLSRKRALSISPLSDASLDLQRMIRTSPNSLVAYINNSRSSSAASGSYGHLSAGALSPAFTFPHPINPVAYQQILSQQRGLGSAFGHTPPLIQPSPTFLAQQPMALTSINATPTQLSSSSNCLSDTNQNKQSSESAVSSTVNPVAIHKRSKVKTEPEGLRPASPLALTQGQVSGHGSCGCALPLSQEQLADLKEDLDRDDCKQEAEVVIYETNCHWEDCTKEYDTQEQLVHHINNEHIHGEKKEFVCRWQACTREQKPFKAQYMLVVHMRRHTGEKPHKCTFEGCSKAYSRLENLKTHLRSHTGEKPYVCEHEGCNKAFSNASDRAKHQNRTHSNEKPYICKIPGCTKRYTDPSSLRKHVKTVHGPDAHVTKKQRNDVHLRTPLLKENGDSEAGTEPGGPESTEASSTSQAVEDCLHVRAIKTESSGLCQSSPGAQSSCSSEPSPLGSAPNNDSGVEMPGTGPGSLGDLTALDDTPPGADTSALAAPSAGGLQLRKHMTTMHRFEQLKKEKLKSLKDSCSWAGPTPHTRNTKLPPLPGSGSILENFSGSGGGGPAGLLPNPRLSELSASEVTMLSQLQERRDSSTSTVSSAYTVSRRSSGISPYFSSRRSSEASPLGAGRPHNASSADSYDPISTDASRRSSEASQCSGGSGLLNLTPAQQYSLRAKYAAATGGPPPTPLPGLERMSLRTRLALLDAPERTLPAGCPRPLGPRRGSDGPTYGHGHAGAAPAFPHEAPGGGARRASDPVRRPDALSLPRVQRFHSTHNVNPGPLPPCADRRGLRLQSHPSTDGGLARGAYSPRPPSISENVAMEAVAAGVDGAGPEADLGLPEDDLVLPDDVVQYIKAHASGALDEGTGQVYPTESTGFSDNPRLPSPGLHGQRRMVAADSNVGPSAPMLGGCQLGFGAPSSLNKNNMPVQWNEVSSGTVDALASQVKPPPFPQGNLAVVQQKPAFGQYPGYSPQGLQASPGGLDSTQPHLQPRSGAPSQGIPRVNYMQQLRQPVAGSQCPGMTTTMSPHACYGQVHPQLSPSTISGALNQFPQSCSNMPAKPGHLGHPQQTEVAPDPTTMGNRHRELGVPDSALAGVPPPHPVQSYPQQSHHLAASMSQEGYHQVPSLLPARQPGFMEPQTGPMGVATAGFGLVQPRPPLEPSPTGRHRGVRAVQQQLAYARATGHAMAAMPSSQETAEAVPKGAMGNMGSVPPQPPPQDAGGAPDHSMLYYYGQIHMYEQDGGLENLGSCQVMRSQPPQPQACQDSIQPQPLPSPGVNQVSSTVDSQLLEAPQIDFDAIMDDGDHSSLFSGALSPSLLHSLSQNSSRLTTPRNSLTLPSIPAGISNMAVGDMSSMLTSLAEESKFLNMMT
UniProt Q15465, residues 24-462: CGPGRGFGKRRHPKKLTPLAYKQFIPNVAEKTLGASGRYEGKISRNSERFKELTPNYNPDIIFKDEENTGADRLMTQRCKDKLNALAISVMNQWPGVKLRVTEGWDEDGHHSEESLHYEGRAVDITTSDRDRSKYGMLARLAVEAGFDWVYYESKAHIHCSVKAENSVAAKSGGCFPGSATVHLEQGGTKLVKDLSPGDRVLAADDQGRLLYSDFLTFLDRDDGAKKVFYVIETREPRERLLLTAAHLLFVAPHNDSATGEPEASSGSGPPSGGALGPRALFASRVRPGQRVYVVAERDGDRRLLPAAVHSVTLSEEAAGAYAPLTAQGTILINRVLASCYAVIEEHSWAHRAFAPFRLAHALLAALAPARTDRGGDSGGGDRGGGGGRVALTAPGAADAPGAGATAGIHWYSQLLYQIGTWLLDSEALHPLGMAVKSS

Target: T1, KIAA0753-Flag (UniProt Q2KHM9)
T1 sequence: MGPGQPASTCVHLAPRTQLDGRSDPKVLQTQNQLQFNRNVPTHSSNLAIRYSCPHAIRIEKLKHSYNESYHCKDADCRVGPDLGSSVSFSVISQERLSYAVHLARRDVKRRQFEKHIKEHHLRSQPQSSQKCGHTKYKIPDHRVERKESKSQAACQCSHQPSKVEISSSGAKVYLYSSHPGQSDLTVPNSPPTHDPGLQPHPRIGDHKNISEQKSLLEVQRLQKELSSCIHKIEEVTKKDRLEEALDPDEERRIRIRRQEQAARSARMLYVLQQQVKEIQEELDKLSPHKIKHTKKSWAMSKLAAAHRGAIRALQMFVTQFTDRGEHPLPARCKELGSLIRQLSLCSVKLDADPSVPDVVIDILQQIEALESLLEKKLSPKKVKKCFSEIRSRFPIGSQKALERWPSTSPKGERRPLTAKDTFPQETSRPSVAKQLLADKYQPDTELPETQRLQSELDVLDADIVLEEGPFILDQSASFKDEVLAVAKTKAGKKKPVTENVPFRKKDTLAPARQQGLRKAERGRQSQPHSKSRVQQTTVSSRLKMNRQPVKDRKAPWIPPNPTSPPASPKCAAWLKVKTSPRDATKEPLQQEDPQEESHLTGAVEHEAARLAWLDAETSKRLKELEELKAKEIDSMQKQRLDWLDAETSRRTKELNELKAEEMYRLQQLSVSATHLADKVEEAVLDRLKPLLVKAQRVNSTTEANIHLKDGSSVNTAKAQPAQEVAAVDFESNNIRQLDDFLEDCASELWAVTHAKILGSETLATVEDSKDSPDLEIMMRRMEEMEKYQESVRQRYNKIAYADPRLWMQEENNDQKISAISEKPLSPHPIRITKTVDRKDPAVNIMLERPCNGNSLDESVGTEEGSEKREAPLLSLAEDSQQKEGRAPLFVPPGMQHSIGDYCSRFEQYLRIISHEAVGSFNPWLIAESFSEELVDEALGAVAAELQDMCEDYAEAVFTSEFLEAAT
Experiment: co-IP; HEK293T cells transfected for 48 h; lysed in RIPA buffer with PMSF; lysate incubated with antibody of Flag, KIAA0753, Gli2 or IgG at 4°C for 24 h; captured with Protein A+G Agarose; washed 10 times with PBS; western blot

| binding | Substance |
| --- | --- |
| binds | Gli2-Myc (from UniProt P10070 1-1586) |
| binds | SHH-Flag (from UniProt Q15465 24-462) |
